Reference: patent US7399847 (GENERAL HOSPITAL, dated 2008)
No constants are given. Whether binding was seen depends on the method and setting. Some results given as binding are weak or reduced against the parent protein; the word gives no strength.

Biological target: T1, E-selectin Ig chimera (human) (UniProt P16581)
T1 sequence (looked up): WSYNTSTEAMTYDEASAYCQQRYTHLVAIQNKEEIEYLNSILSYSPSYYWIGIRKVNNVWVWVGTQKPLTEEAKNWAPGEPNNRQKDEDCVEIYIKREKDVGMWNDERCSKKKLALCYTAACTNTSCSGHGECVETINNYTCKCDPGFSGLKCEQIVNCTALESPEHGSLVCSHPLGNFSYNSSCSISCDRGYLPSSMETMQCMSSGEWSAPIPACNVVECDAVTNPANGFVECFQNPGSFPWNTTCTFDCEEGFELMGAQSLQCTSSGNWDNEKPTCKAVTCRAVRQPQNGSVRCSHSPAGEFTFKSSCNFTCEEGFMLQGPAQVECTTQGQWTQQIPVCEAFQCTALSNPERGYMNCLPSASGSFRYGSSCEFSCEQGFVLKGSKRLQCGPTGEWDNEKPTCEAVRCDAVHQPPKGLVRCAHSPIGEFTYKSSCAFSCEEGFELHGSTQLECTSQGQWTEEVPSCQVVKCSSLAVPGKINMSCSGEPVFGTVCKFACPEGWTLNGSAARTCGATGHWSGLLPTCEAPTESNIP
Test: adhesion of 51Cr-labelled transfected COS cells to immobilized E-selectin Ig

B1: PSGL-1 residues 38-57 with tyrosines converted to phenylalanine, on the truncated PSGL-1 lacking the apical domain (ligand, not shown: small tags and cut ends)
chain: RDRRQATEFEFLDFDFLPETAMEIQTTQPAATEAQTTQPVPTEAQTTPLAATEAQTTRLTATEAQTTPLAATEAQTTPPAATEAQTTQPTGLEAQTTAPAAMEAQTTAPAAMEAQTTPPAAMEAQTTQTTAMEAQTTAPEATEAQTTQPTATEAQTTPLAAMEALSTEPSATEALSMEPTTKRGLFIPFSVSSVTHKGIPMAASNLSVNYPVGAPDHISVKQCLLAILILALVATIFFVCTVVLAVRLSRKGHMYPVRNYSPTEMVCISSLLPDGGEGPSATANGGLSKAKSPGLTPEPREDREGDDLTLHSFLP
binding: binds
